No constants are given. Whether binding was seen depends on the method and setting.
What was measured:
[1] = target: Mic10 (human (endogenous in HEK293)) (UniProt Q5TGZ0); assay: native gel or EMSA; blue native PAGE of isolated mitochondria from WT and Mic10/Mic60-deficient HEK293 cells, solubilised with 1% digitonin; complexes immunoblotted for TMBIM5, Mic10 and Mic60
[2] = target: T1, Mic60 (human (endogenous in HEK293)) (UniProt Q16891); assay: as above
T1 sequence: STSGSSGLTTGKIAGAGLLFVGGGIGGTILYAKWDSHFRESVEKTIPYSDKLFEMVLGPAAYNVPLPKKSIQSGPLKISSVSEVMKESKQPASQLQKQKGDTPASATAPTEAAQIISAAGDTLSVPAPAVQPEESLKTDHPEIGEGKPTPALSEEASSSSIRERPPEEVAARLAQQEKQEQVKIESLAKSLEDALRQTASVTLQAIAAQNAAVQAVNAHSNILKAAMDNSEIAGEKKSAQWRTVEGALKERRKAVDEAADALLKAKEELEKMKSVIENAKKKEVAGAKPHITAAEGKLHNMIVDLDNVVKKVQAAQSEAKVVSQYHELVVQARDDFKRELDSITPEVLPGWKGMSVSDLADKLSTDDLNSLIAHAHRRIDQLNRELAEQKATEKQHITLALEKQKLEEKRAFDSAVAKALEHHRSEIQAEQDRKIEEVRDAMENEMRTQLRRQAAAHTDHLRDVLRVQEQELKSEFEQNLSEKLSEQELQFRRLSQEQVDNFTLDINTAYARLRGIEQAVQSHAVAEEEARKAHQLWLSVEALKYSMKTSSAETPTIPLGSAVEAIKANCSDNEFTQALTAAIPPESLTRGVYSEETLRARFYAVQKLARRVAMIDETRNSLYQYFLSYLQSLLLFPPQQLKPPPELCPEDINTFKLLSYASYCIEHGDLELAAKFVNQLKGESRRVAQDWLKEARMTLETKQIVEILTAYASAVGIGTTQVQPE

Protein sequences, listed by entry. Tags and fused reporters are not part of them.
UniProt Q5TGZ0: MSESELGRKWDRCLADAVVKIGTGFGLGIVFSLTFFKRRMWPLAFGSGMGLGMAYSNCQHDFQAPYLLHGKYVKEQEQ

B1: Transmembrane BAX Inhibitor-1 Motif Containing Protein 5 (TMBIM5) (protein, UniProt Q9H3K2 46-345)
chain: ATKTRIGIRRGRTGQELKEAALEPSMEKIFKIDQMGRWFVAGGAAVGLGALCYYGLGLSNEIGAIEKAVIWPQYVKDRIHSTYMYLAGSIGLTALSAIAISRTPVLMNFMMRGSWVTIGVTFAAMVGAGMLVRSIPYDQSPGPKHLAWLLHSGVMGAVVAPLTILGGPLLIRAAWYTAGIVGGLSTVAMCAPSEKFLNMGAPLGVGLGLVFVSSLGSMFLPPTTVAGATLYSVAMYGGLVLFSMFLLYDTQKVIKRAEVSPMYGVQKYDPINSMLSIYMDTLNIFMRVATMLATGGNRKK
B1 was tested, and the binding [1] was “no binding” and the binding [2] was “no binding”.

Reference: paper PMC7598220
